Laboratory results published in paper PMC4397538 (2015).
No constants are given. Whether binding was seen depends on the method and setting.

Molecular target: T1, Biotin-BH4-Bcl-XL
T1 sequence (peptide, biotin on the N-terminus (also used without the biotin tag)): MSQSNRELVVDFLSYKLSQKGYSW
Experiment: SPR; Biacore T200; biotin peptides immobilised on different channels of a streptavidin-coated sensor chip; purified GST-fusion proteins flowed over at the indicated concentrations; binding to the scrambled peptide subtracted; both purified

- binding: no binding
B1: GST-tagged IP3R1 domain 3 (mouse IP3R1, a.a. 923-1581) (protein)
chain: SIHGVGELMTQVVLRGGGFLPMTPMAAAPEGNVKQAEPEKEDIMVMDTKLKIIEILQFILNVRLDYRISCLLCIFKREFDESNSQSSETSSGNSSQEGPSNVPGALDFEHIEEQAEGIFGGSEENTPLDLDDHGGRTFLRVLLHLTMHDYPPLVSGALQLLFRHFSQRQEVLQAFKQVQLLVTSQDVDNYKQIKQDLDQLRSIVEKSELWVYKGQGPDEPMDGASGENEHKKTEEGTSKPLKHESTSSYNYRVVKEILIRLSKLCVQESASVRKSRKQQQRLLRNMGAHAVVLELLQIPYEKAEDTKMQEIMRLAHEFLQNFCAGNQQNQALLHKHINLFLNPGILEAVTMQHIFMNNFQLCSEINERVVQHFVHCIETHGRNVQYIKFLQTIVKAEGKFIKKCQDMVMAELVNSGEDVLVFYNDRASFQTLIQMMRSERDRMDENSPLMYHIHLVELLAVCTEGKNVYTEIKCNSLLPLDDIVRVVTHEDCIPEVKIAYINFLNHCYVDTEVEMKEIYTSNHMWKLFENFLVDICRACNNTSDRKHADSILEKYVTEIVMSIVTTFFSSPFSDQSTTLQTRQPVFVQLLQGVFRVYHCNWLMPSQKASVESCIRVLSDVAKSRAIAIPVDLDSQVNNLFLKSHNIVQKTALNWRLSAR
